What follows is the remainder of the data, with few or none of the hits. Activity calls are given as the source filed them. Rule as the data show it: active = growth inhibition above about 70%; inactive = the rest.
Assays:
[1] = NCI Yeast Anticancer Drug Screen. Data for the wt1 strain (AID 149);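 also: 0% = growth of vehicle-treated wt1 cultures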; settings: S. cerevisiae wt1 strain (SPY 50644) growth inhibition, stronger effect = higher value
Outline: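 Using yeast strain wt1, compound-induced growth inhibition was determined against vehicle-treated cultures.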

[2] = NCI Yeast Anticancer Drug Screen. Data for the rad50EPP+ strain (AID 151);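 also: 0% = growth of vehicle-treated control cultures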; settings: S. cerevisiae rad50 mutant strain, stronger effect = higher value
Outline: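 Exposing the rad50EPP+ strain to each compound, growth was compared with vehicle-only cultures to give inhibition.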

[3] = NCI Yeast Anticancer Drug Screen. Data for the mgt1 strain (AID 153); settings: S. cerevisiae mgt1 mutant growth inhibition, stronger effect = higher value
Outline: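 Genetically defined yeast (mgt1) treated with compound; inhibition of growth expressed against vehicle-treated controls.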

[4] = NCI Yeast Anticancer Drug Screen. Data for the rad14 strain (AID 159);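 also: 0% = growth of vehicle-treated control cultures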; settings: S. cerevisiae rad14 strain growth inhibition, stronger effect = higher value
Outline: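 Screen for anticancer potential: a yeast strain altered in DNA damage repair is grown with compound, and reduced growth is quantified against vehicle controls.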

[5] = NCI Yeast Anticancer Drug Screen. Data for the CLN2oe strain (AID 163);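 also: 0% = growth of vehicle-only control cultures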; settings: S. cerevisiae CLN2oe strain, stronger effect = higher value
Outline: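 Values reflect how much compound exposure reduced yeast growth, referenced to vehicle-exposed cells. Assay organism is a strain with a defined genetic change affecting cell-cycle control.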

[6] = NCI Yeast Anticancer Drug Screen. Data for the wt2 strain (AID 169);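 also: 0% = growth of vehicle-treated yeast cultures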; settings: S. cerevisiae wt2 strain growth inhibition, stronger effect = higher value
Outline: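 Values express reduction in yeast growth under compound treatment, referenced to vehicle-treated cells.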

[7] = NCI Yeast Anticancer Drug Screen. Data for the mlh1 strain (AID 171);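 also: 0% = growth of vehicle-treated control cultures of the same strain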; settings: S. cerevisiae mlh1 strain growth inhibition, stronger effect = higher value
Outline: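 Steps: expose the defined-mutant yeast strain to compound; expose a parallel culture to vehicle; measure growth; express compound effect as inhibition relative to the vehicle culture.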

[8] = NCI Yeast Anticancer Drug Screen. Data for the sgs1 strain (AID 173);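 also: 0% = growth of vehicle-only control cultures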; settings: S. cerevisiae sgs1 mutant, stronger effect = higher value
Outline: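 Treat defined-mutant yeast with compound; measure growth; calculate inhibition relative to vehicle-treated cells.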

[9] = NCI Yeast Anticancer Drug Screen. Data for the rad18 strain (AID 177); settings: S. cerevisiae rad18 mutant growth inhibition, stronger effect = higher value
Outline: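 A genetically defined yeast mutant impaired in DNA damage repair was treated with test compounds, then its growth was measured against cultures receiving vehicle alone.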

[10] = NCI Yeast Anticancer Drug Screen. Data for the rad52 strain (AID 147);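 also: 0% = growth of vehicle-treated control cultures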; settings: S. cerevisiae rad52 mutant growth inhibition, stronger effect = higher value
Outline: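 Screen used a yeast mutant impaired in DNA repair. After compound exposure, growth was measured. Values reflect inhibition compared with vehicle-treated cells.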

Measured: growth inhibition

C/C(=N/NC(N)=O)C(C)(OCC(C)C)c1ccccc1 (stereo not given)
inactive: [1]; at 1.2 µM -2% | [1]; at 3.7 µM 2% | [1]; at 11.0 µM -2% | [1]; at 33.0 µM -3% | [1]; at 100.0 µM -2% | [2]; at 1.2 µM -1% | [2]; at 3.7 µM -3% | [2]; at 11.0 µM -3% | [2]; at 33.0 µM -4% | [2]; at 100.0 µM -2% | [3]; at 1.2 µM -5% | [3]; at 3.7 µM -2% | [3]; at 11.0 µM -1% | [3]; at 33.0 µM -1% | [3]; at 100.0 µM -2% | [4]; at 1.2 µM -1% | [4]; at 3.7 µM 1% | [4]; at 11.0 µM 2% | [4]; at 33.0 µM 0% | [4]; at 100.0 µM 2% | [5]; at 1.2 µM -3% | [5]; at 3.7 µM -6% | [5]; at 11.0 µM -1% | [5]; at 33.0 µM -3% | [5]; at 100.0 µM -8% | [6]; at 1.2 µM -1% | [6]; at 3.7 µM 0% | [6]; at 11.0 µM -1% | [6]; at 33.0 µM 0% | [6]; at 100.0 µM -2% | [7]; at 1.2 µM -1% | [7]; at 3.7 µM -4% | [7]; at 11.0 µM -3% | [7]; at 33.0 µM -2% | [7]; at 100.0 µM -1% | [8]; at 1.2 µM -3% | [8]; at 3.7 µM -4% | [8]; at 11.0 µM -5% | [8]; at 33.0 µM -3% | [8]; at 100.0 µM -1% | [9]; at 1.2 µM -1% | [9]; at 3.7 µM -5% | [9]; at 11.0 µM -5% | [9]; at 33.0 µM -4% | [9]; at 100.0 µM -7%

CC(C)=CCCC(C)CCOC(=O)Nc1ccccc1 (stereo not given)
inactive: [1]; at 1.2 µM -4% | [1]; at 3.7 µM -4% | [1]; at 11.0 µM -7% | [1]; at 33.0 µM -12% | [1]; at 100.0 µM -13% | [2]; at 1.2 µM -7% | [2]; at 3.7 µM 8% | [2]; at 11.0 µM 13% | [2]; at 33.0 µM 30% | [2]; at 100.0 µM 51% | [3]; at 1.2 µM -3% | [3]; at 3.7 µM -1% | [3]; at 11.0 µM -5% | [3]; at 33.0 µM -8% | [3]; at 100.0 µM -5% | [4]; at 1.2 µM -3% | [4]; at 3.7 µM -5% | [4]; at 11.0 µM -4% | [4]; at 33.0 µM 0% | [4]; at 100.0 µM 2% | [5]; at 1.2 µM -2% | [5]; at 3.7 µM -4% | [5]; at 11.0 µM -7% | [5]; at 33.0 µM -13% | [5]; at 100.0 µM -16% | [6]; at 1.2 µM -3% | [6]; at 3.7 µM -5% | [6]; at 11.0 µM -6% | [6]; at 33.0 µM -9% | [6]; at 100.0 µM -11% | [7]; at 1.2 µM -2% | [7]; at 3.7 µM -1% | [7]; at 11.0 µM 2% | [7]; at 33.0 µM 3% | [7]; at 100.0 µM 6% | [8]; at 1.2 µM -3% | [8]; at 3.7 µM 0% | [8]; at 11.0 µM 1% | [8]; at 33.0 µM 3% | [8]; at 100.0 µM 8% | [9]; at 1.2 µM -4% | [9]; at 3.7 µM -1% | [9]; at 11.0 µM 2% | [9]; at 33.0 µM 3% | [9]; at 100.0 µM 6%

O=[N+]([O-])c1nccn1CCCNc1ccnc2cc(Cl)ccc12
inactive: [10]; at 1.2 µM -1% | [10]; at 3.7 µM 1% | [10]; at 11.0 µM 4% | [10]; at 33.0 µM 5% | [10]; at 100.0 µM 12% | [1]; at 1.2 µM 0% | [1]; at 3.7 µM -1% | [1]; at 11.0 µM -2% | [1]; at 33.0 µM -1% | [1]; at 100.0 µM -17% | [2]; at 1.2 µM -2% | [2]; at 3.7 µM -3% | [2]; at 11.0 µM 0% | [2]; at 33.0 µM 6% | [2]; at 100.0 µM 6% | [3]; at 1.2 µM -2% | [3]; at 3.7 µM -1% | [3]; at 11.0 µM -2% | [3]; at 33.0 µM -2% | [3]; at 100.0 µM -5% | [4]; at 1.2 µM -2% | [4]; at 3.7 µM -4% | [4]; at 11.0 µM -1% | [4]; at 33.0 µM -3% | [4]; at 100.0 µM 1% | [5]; at 1.2 µM -5% | [5]; at 3.7 µM -7% | [5]; at 11.0 µM -7% | [5]; at 33.0 µM -10% | [5]; at 100.0 µM -11% | [6]; at 1.2 µM -3% | [6]; at 3.7 µM -1% | [6]; at 11.0 µM -2% | [6]; at 33.0 µM -2% | [6]; at 100.0 µM -2% | [7]; at 1.2 µM -2% | [7]; at 3.7 µM -1% | [7]; at 11.0 µM 0% | [7]; at 33.0 µM -1% | [7]; at 100.0 µM 2% | [8]; at 1.2 µM 1% | [8]; at 3.7 µM 0% | [8]; at 11.0 µM 3% | [8]; at 33.0 µM 7% | [8]; at 100.0 µM 17% | [9]; at 1.2 µM 5% | [9]; at 3.7 µM 10% | [9]; at 11.0 µM 15% | [9]; at 33.0 µM 29% | [9]; at 100.0 µM 55%

CN1C(=O)C(CC(N)=O)NC1=S (stereo not given)
inactive: [10]; at 1.2 µM 0% | [10]; at 3.7 µM -1% | [10]; at 11.0 µM 0% | [10]; at 33.0 µM 4% | [10]; at 100.0 µM 16% | [1]; at 1.2 µM -1% | [1]; at 3.7 µM -2% | [1]; at 11.0 µM 1% | [1]; at 33.0 µM 2% | [1]; at 100.0 µM 7% | [2]; at 1.2 µM 1% | [2]; at 3.7 µM 0% | [2]; at 11.0 µM -1% | [2]; at 33.0 µM -6% | [2]; at 100.0 µM -6% | [3]; at 1.2 µM -2% | [3]; at 3.7 µM -4% | [3]; at 11.0 µM -2% | [3]; at 33.0 µM 18% | [3]; at 100.0 µM 11% | [4]; at 1.2 µM -1% | [4]; at 3.7 µM 0% | [4]; at 11.0 µM 5% | [4]; at 33.0 µM 11% | [4]; at 100.0 µM 28% | [5]; at 1.2 µM -3% | [5]; at 3.7 µM 0% | [5]; at 11.0 µM 2% | [5]; at 33.0 µM -1% | [5]; at 100.0 µM -1% | [6]; at 1.2 µM 0% | [6]; at 3.7 µM -1% | [6]; at 11.0 µM 4% | [6]; at 33.0 µM 5% | [6]; at 100.0 µM 11% | [7]; at 1.2 µM -1% | [7]; at 3.7 µM -1% | [7]; at 11.0 µM 1% | [7]; at 33.0 µM 5% | [7]; at 100.0 µM 25% | [8]; at 1.2 µM -1% | [8]; at 3.7 µM 4% | [8]; at 11.0 µM 8% | [8]; at 33.0 µM 16% | [8]; at 100.0 µM 44% | [9]; at 1.2 µM 0% | [9]; at 3.7 µM 1% | [9]; at 11.0 µM -1% | [9]; at 33.0 µM 11% | [9]; at 100.0 µM 30%

— PubChem BioAssay (NCI)
